# Results from PubChem BioAssay AID1347071 (National Center for Advancing Translational Sciences (NCATS), 2019).
# Hit rate of the full screen: of about 410,000 compounds, about 260 (0.063%) were called active. All entries are inconclusive by the source's own rule. Clear calls are listed elsewhere. Calls come from the whole dose curve; as a rule, active = well fitted activation curve with a large enough effect; inconclusive = small, poorly fitted or top-dose-only effect; inactive = no such curve, though single readings can be large or run the other way.
# Test: qHTS for compounds that reverse cellular toxicity of Amyloid beta (A-beta) peptide in yeast: Primary Screen; note: nearly all actives have a fitted effect of over 55% in size
# Details: yeast expressing A-beta42, growth rescue, OD600, 48 h
# Source text: The A-beta peptide is produced by the processing of the amyloid precursor protein (APP) by two proteases, beta and gamma secretases. […] A-beta42 is regarded as the most amyloidogenic form due to its hydrophobicity; however, precisely how A-beta42 induces neurotoxicity is unclear. To understand further this biology and its potential therapeutic implications for human neurodegenerative disease, a quantitative high-throughput screen for compounds that reverse the cellular toxicity of the A-beta peptide was developed. A yeast based screen was used because it recapitulates the salient feature of protein mis-folding disorder accurately. This cell-based phenotypic screen provides a significant, unbiased advantage by letting the compounds and models inform us which proteins or pathways are most relevant. The ideal chemical candidates would therefore have activity in both our primary yeast and secondary neuronal toxicity assays, as well as in mouse models. […] For this luminescence assay, inhibition of A-beta rescues the toxic effect in the yeast cell, resulting in increase of signals and the desired phenotype of "Activator". […]
# Two and a half microliter / well of yeast growth medium were dispensed in a 1536 assay plate. […] After 48 hr, the absorbance signal at 600 nm was obtained using the PerkinElmer ViewLux plate reader to assess yeast growth. […]
# Potency is the fitted concentration of half-maximal effect.
row,SMILES,Potency
1,C[N+]1=C2C=CC=CC=C2SC12C([N+](=O)[O-])=CC([N+](=O)[O-])=C[C-]2[N+](=O)[O-] (stereo unspecified),inconclusive: 562 nM
